From patent publication US20240352100A1 (AJOU UNIVERSITY INDUSTRY ACADEMIC COOPERATION FOUNDATION, published 2024)
No constants are given. Whether binding was seen depends on the method and setting. In cells and extracts the contact can be indirect. Some binding calls cover weakened binding; strength is not graded here.

Amino acid sequences for entries named in this document (tags omitted). Residues count along the entry.
UniProt P35222, residues 2-781: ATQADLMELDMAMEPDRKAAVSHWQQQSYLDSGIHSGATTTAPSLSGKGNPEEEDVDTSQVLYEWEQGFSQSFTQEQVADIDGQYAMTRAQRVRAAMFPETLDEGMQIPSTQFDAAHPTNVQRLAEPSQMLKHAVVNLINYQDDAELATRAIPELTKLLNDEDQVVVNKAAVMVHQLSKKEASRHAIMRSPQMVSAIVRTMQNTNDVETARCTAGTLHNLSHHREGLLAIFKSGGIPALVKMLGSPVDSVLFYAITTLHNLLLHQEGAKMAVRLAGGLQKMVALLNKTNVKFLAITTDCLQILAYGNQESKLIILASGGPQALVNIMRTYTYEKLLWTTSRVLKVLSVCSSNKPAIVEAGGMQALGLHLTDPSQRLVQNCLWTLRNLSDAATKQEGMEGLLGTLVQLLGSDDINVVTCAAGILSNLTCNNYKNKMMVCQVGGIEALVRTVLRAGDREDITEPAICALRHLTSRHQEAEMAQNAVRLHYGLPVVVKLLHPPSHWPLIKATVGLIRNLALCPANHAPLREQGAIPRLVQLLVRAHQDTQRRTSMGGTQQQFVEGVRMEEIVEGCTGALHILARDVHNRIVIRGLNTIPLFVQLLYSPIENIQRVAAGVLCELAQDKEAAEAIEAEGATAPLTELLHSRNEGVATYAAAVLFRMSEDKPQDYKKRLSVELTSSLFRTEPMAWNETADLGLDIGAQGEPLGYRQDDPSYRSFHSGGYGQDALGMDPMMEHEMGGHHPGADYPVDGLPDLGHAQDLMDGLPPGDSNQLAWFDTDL

Target: β-catenin (endogenous, in colon cancer cell lines) (human) (UniProt P35222)
Assay: co-immunoprecipitation from LoVo cells treated with 2 µM antibody, Western blot

binding: binds
B1: inBC2 (antibody, V domains shown)
VH: QVQLVESGGGVVQPGRSLRLSCAASGFTFSSYPMHWVRQAPGKGLEWVAVVSYDGSYKYYADSVKGRLTISRDNSKNTLYLQMNSLRAEDTAVYYCARATVRGVTKIRGVFDSWGQGTLVTVSS
VL: DYQLTQSPSSLSASVGDRVTITCKSSQSLLNSRDGKNYLAWYQQKPGKAPKMLIYWASTRESGVPSRFSGSGSGTDFTLTISSLQPEDFATYFCQQYWYWMFTFGQGTKVEIKR
notes: Complete immunoglobulin; FR4 back-mutated form of inBC0; also called anti-β-catenin cytosol-penetrating interfering antibody inBC2; anti-β-catenin iMab
